Drawing on patent US4100117A (Eli Lilly and Company, priority 1977, dated 1978), this text covers oxidative folding yield and isolated yield for one substance.

This data set is described as follows: general procedure: Boc solid-phase peptide synthesis; chloromethylated resin or hydroxymethyl resin.

Some peptides are written in HELM: one residue between dots, names in brackets for other building blocks, links after the first $.

Consider “PEPTIDE1{[dV].G.C.K.N.F.F.W.K.T.F.T.S.C}$PEPTIDE1,PEPTIDE1,3:R3-14:R3$$$V2.0”, for which the oxidative folding yield (oxidative folding step, from reduced form) is recorded as 54.3%. For the same substance, the isolated yield (whole synthesis) is reported as 24.8%.
